67 molecules from PubChem BioAssay AID662 (National Center for Advancing Translational Sciences (NCATS), 2007) can be followed below.

For orientation: AC50 means the concentration at which the activity in the assay is half-maximal.

Where “and” joins values, the source holds several entries; their conditions need not be identical. Equal entries are not always repeated. Some of the results follow. The main result of the screen is listed elsewhere. These columns were measured beside it and carry no call. Most of these compounds were active or inconclusive in the main read-out, so they are no random draw. Words in brackets tell the shape of the fitted curve; partial curves, single points and poor fits give uncertain potencies.

The nature of this experiment: Cell signaling CRE-BLA (Fsk stim). The conditions noted are these: CHO CRE-bla reporter (cAMP response element driving beta-lactamase), forskolin EC10, beta-lactamase ratio; measured here: 460 nm blue channel. The procedure, abridged: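 Modulation of forskolin-driven signalling is measured in CHO cells carrying a CRE-controlled beta-lactamase reporter. Cells are stimulated with EC10 NKH 477 in the presence of titrated compound for 3 h at 37 °C, then loaded with CCF4 for 2 h at room temperature.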
Take `COCCNC(=O)CSc1nc2cc(OC)c(OC)cc2c(=O)n1Cc1ccco1`: the AC50 was 10 µM [rising, partial curve]. Regarding `Cc1cc(C)c(C#N)c(N2CCSCC2)n1`, the AC50 is 12.6 µM [rising, single point]. In the case of `COc1cc(CC(=O)Nc2sccc2C(N)=O)cc(OC)c1OC` it was 12.6 µM [rising, single point]; in that of `COCCCNS(=O)(=O)c1ccccc1`, 0.00316 µM [falling, full curve, poor fit]. In the case of `O=c1c(-c2cc(F)cc(F)c2)nc2cncnc2n1C1CC1` it was 12.6 µM [rising, partial curve]; in that of `CC1CC(C)CN(C(=O)COc2ccc(-c3nnco3)cc2)C1` (configuration not stated), 0.0794 µM [falling, full curve]; in that of `COc1ccc(CCNC[C@H](O)c2ccc(O)cc2)cc1OC`, 25.1 µM [falling, partial curve]. With `Cc1cc(NCCOCCO)n2ncc(-c3ccc(Cl)cc3)c2n1` the figure was 5.01 µM [rising, partial curve]; with `CC(C)[C@H](CO)Nc1nc(Nc2cccc(Cl)c2)c2ncn(C(C)C)c2n1`, 10 µM [falling, full curve] and 15.8 µM [falling, partial curve, poor fit]. As to `CC(C)CCNC(=O)CCS(=O)(=O)c1cccc2nonc12`, the half-maximal activity concentration (AC50) is 15.8 µM [falling, partial curve].

On to `CC(C)=CCC/C(C)=C/COc1c2ccoc2cc2oc(=O)ccc12`, for which the concentration at half-maximal activity (AC50) was 12.6 µM [rising, partial curve]. With `O=c1c(-c2ccc(F)cc2)nc2cnc(Oc3cccc(Cl)c3)nc2n1C[C@H]1CCCO1`, the AC50 was 12.6 µM [rising, partial curve]. `O=C(Nc1ccc2nc(C3CC3)n(Cc3ccc(F)cc3)c(=O)c2c1)c1ccco1`: the half-maximal activity concentration (AC50) is 0.2 µM [falling, full curve]. With `C[C@@H]1C(=O)O[C@H]2[C@@H](O)[C@@]34[C@H]5C[C@H](C(C)(C)C)[C@@]36[C@H](OC(=O)[C@@H]6O)O[C@@]4(C(=O)O5)[C@@]12O`, the AC50 was 25.1 µM [falling, partial curve, poor fit]. In the case of `COc1cc(Cc2cnc(N)nc2N)cc(OC)c1OC` it was 2.51 µM [falling, full curve, poor fit]; in that of `CCc1ccc(NC2CC(=O)N(c3ccc(OC)cc3OC)C2=O)cc1` (configuration not stated), 0.631 µM [rising, single point].

Turning to `Cc1ccc2cc3c(NC(=O)C(C)C)nn(C)c3nc2c1`, the AC50 was 12.6 µM [rising, partial curve]. Regarding `CC(=O)N1CCC2(CC1)CCN(c1cccc(-c3ccccc3)c1)CC2`, the AC50 was 12.6 µM [rising, partial curve].

As for `FC(F)(F)c1cnc2c(c1)Nc1ccccc1S2`, the AC50 is 3.16 µM [falling, partial curve]. With `COc1ccc(Cl)cc1NS(=O)(=O)c1cc(Cl)ccc1OC` the figure was 0.794 µM [falling, full curve]; with `CCc1ccc(CNc2ccc3c(c2)ncn3C)cc1`, 12.6 µM [falling, partial curve]; with `CCc1nc(Nc2ccncc2)c2oc3ccccc3c2n1`, 10 µM [rising, partial curve]. As to `CCOC(=O)c1[nH]c(C)c(C(=O)OCc2c(C)noc2C)c1C`, the AC50 was 1.58 µM [rising, full curve].

Turning to `O=C(NC1CCCCCC1)C1c2ccccc2C(=O)N1CCCN1CCOCC1` (configuration not stated), the half-maximal activity concentration (AC50) is 25.1 µM [rising, single point]. With `COc1ccc(OC)c(C2C(C(C)=O)=C(O)C(=O)N2c2ccc(F)cc2)c1` (configuration not stated) the figure was 1 µM [falling, single point].

Turning to `CCSC(=Nc1ccccc1)C1=C(O)COC1=O`, the concentration at half-maximal activity (AC50) is 6.31 µM [falling, partial curve]. With `Cn1c(=O)[nH]c(=O)c2c1nc(CN(Cc1ccccc1)Cc1ccccc1)n2CCN1CCOCC1` the figure was 2.51 µM [rising, single point]. With `CCOc1ccccc1N(CC)C(=O)Cn1ncc2c(=O)oc3ccccc3c21` the figure was 5.01 µM [rising, partial curve]; with `CN(C)c1ncc2nc(CCc3ccccc3)c(=O)n(Cc3cccs3)c2n1`, 12.6 µM [rising, partial curve]; with `Cc1cccc(-c2nnc3sc(-c4ccccc4C)nn23)c1`, 25.1 µM [falling, single point]. Regarding `CCN(CC)CCN1C(=O)C(=O)/C(=C(/O)c2ccc(OC)c(OC)c2)C1c1ccccn1` (configuration not stated), the AC50 is 5.01 µM [rising, full curve]. With `COc1ccc(Cn2nnnc2CN2CCC(c3nc4ccccc4s3)CC2)cc1` the figure was 12.6 µM [rising, partial curve]; with `N#CC1=C(N)Oc2n[nH]c(-c3cccs3)c2C1c1ccco1` (configuration not stated), 3.98 µM [falling, partial curve]. With `COc1cc(-c2nnc(CSc3nnc4nc(C)cc(C)n34)o2)cc(OC)c1OC` the figure was 12.6 µM [rising, single point]; with `Fc1ccc(Cn2nnnc2CN2CCc3ccccc3C2)cc1`, 2.51 µM [falling, single point]. With `COc1ccc(CNC(=O)COC(=O)c2n[nH]c3ccccc23)cc1OC` the figure was 12.6 µM [rising, partial curve]; with `CN(C)C(=O)c1ccc(-c2nc(Nc3ccncc3)c3ccccc3n2)cc1`, 10 µM [rising, partial curve]. For `CCC(CC)C(=O)Nc1cccc(C(=O)N2CCCCCC2)c1`, the AC50 was 0.00398 µM [falling, full curve, poor fit].

For the molecule `O=C(c1cc2c(s1)-c1ccccc1OC2)N1CCCC1`, the AC50 is 20 µM [falling, single point]. On to `COC(=O)[C@@]1(Cc2ccc(OC)cc2)[C@H]2c3cc(C(=O)N(C)C)n(Cc4ccc(O)c(OC)c4)c3C[C@H]2CN1C(=O)c1ccccc1`, for which the AC50 is 1.58 µM [rising, partial curve].

On to `CC(=O)Nc1ccc(NC(=O)Cn2cnc3c(cnn3C(C)(C)C)c2=O)cc1`, for which the half-maximal activity concentration (AC50) is 15.8 µM [rising, single point].

For `CC(C)(C)c1csc(NC(=O)CSc2nc3ccccc3c(=O)[nH]2)n1`, the AC50 is 12.6 µM [rising, partial curve, poor fit]. In the case of `CN(C)CCC(=O)c1ccc2c(c1)OCO2` it was 3.98 µM [falling, partial curve]; in that of `CCCN1C(=O)c2ccccc2NC1c1ccc(OC)cc1OC` (configuration not stated), 5.01 µM [rising, single point]. With `CCN1CCN(c2c(Cl)cccc2NC(=O)c2ccc3c(c2)OCCO3)CC1` the figure was 3.16 µM [rising, full curve, poor fit]. With `CCC[C@H]1C(=O)N2C(N(C)C)=Nc3ccc(C)cc3N2C1=O` the figure was 3.98 µM [rising, partial curve]; with `N#CC1=C(N)Oc2nc(-c3ccccc3)[nH]c2C1c1cccnc1` (configuration not stated), 6.31 µM [rising, partial curve].

For `COCCn1cc(C(=O)N2CCCC(C)C2)c2c3ccccc3n(C)c2c1=O` (configuration not stated), the half-maximal activity concentration (AC50) is 12.6 µM [rising, single point].

`N=c1c(C(=O)NCc2ccco2)cc2c(=O)n3ccccc3nc2n1CCc1ccccc1`: the concentration at half-maximal activity (AC50) was 10 µM [rising, partial curve]. In the case of `CCOC(=O)c1c(C)[nH]c(C(=O)OC)c1CCC(=O)OC` it was 10 µM [rising, partial curve]; in that of `CCCC[C@H]1C(=O)N(c2ccccc2)N(c2ccc(O)cc2)C1=O`, 10 µM [falling, single point]; in that of `Cc1noc(C)c1C(=O)Nc1ccccc1-c1ccccc1`, 1.58 µM [falling, full curve]. With `COc1cccc(C2C=C(c3ccc(OC)cc3OC)Nc3nnnn32)c1` (configuration not stated) the figure was 25.1 µM [rising, partial curve]; with `COc1cc(OC)c(-c2nn3c(-c4cccnc4)nnc3s2)cc1OC`, 3.16 µM [rising, partial curve]. `Cc1c(NC(=O)CCc2ccc(S(=O)(=O)N3CCOCC3)cc2)c(=O)n(-c2ccccc2)n1C`: the AC50 is 5.01 µM [falling, single point].

As for `CCOC(=O)CSC(CC)C(=O)Nc1nnc(C(C)C)s1` (configuration not stated), the concentration at half-maximal activity (AC50) was 10 µM [rising, partial curve]. With `COc1ccc(-c2nc3cnc(Nc4cccc(OC)c4)nc3n(CCC#N)c2=O)cc1`, the concentration at half-maximal activity (AC50) is 12.6 µM [rising, partial curve]. With `O=c1[nH]c(SCc2ccccc2Cl)nc2c1cnn2-c1ccccc1` the figure was 0.501 µM [rising, full curve]; with `COc1ccc(CN2C(=O)c3cccnc3C2Nc2ccc(OC)c(Cl)c2)cc1` (configuration not stated), 0.00316 µM [rising, full curve, poor fit]; with `O=C(CSc1nc2cc(Cl)ccc2s1)N1CCN(C(=O)c2ccco2)CC1`, 10 µM [rising, partial curve].

On to `COC(=O)c1cc(C(=O)OC)n(Cc2ccc(F)cc2)n1`, for which the half-maximal activity concentration (AC50) was 0.794 µM [rising, single point]. With `CC(NC(=O)c1cc(-c2ccc(Br)cc2)on1)c1ccccc1` (configuration not stated) the figure was 0.00794 µM [falling, single point]; with `O=C(CNC(=O)c1ccc(Br)o1)Nc1cccc(-c2cnc3ccccc3n2)c1`, 3.16 µM [rising, full curve]; with `O=C(Nc1ccccc1C(=O)NCc1cccnc1)c1ccco1`, 10 µM [rising, partial curve].

Consider `CN(C)c1cc2c(Nc3ccc4c(cnn4Cc4ccccc4)c3)ncnc2cn1`, for which the AC50 was 25.1 µM [rising, single point].

As to `COC(=O)Cn1c(=NC(=O)CSCC(=O)Nc2cc(C)on2)sc2ccccc21`, the half-maximal activity concentration (AC50) was 12.6 µM [rising, partial curve]. In the case of `N=C1C(c2ccc(Br)cc2)=C(O)C2CCc3ccccc3N12` (configuration not stated) it was 0.251 µM [falling, partial curve, poor fit].
